Some entries share one result that the patent states for a list of compounds.
molecular target: T1, CCR-3 (Homo sapiens, UniProt P51677); test: CCR-3 competition binding SPA (scintillation proximity assay); details: inhibition of [125I] eotaxin binding to membranes from K562 cells stably expressing CCR-3
T1 construct: expressed in transfected cells
T1 sequence (P51677 1-355): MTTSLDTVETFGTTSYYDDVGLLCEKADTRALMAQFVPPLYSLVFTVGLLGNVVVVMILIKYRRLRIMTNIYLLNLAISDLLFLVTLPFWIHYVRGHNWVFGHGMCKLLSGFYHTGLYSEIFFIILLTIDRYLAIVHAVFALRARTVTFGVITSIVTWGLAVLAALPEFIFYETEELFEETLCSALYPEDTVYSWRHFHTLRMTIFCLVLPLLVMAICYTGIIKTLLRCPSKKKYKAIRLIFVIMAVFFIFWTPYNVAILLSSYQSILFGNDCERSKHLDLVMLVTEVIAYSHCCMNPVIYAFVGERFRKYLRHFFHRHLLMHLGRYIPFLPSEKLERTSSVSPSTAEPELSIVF
Description: A CCR-3 competition binding SPA (scintillation proximity assay) was used to assess the affinity of novel compounds for CCR-3. Membranes prepared from K562 cells stably expressing CCR-3 (2.51 μg/well) were mixed with 0.25 mg/well wheat-germ agglutinin SPA beads (Amersham) and incubated in binding buffer (HEPES 50 mM, CaCl2 1 mM, MgCl2 5 mM, 0.5% BSA) at 4° C. for 1.5 hr. Following incubation, 20 pM of [^125I) eotaxin (Amersham) and increasing concentrations of compound (1 pM to 30 μM) were added and incubated in a 96 well plate for 2 hr at 22° C. then counted on a Microbeta plate counter. The total assay volume was 100 μl. Competition binding data were analysed by fitting the data with a four parameter logistic equation. Data are presented as the mean pIC50 values (negative logarithm of the concentration of compound which inhibits [^125I] eotaxin binding by 50%) from at least two experiments.

SMILES	pIC50 value in CCR-3 binding assay (assay (a))
C[C@@H]1CO[C@H](CNC(=O)Cc2ccccc2)CN1Cc1ccc(Cl)c(Cl)c1 (relative stereo) [Example 24, N-{[(cis)-4-(3,4Dichlorobenzyl)-5-methylmorpholin-2-yl]methyl}-2-phenylacetamide]	greater than 5.0
C[C@@H]1CO[C@H](CNC(=O)Cc2ccc(Cl)cc2)CN1Cc1ccc(Cl)c(Cl)c1 (relative stereo) [Example 26, 2-(4-Chlorophenyl)-N-{[(cis)-4-(3,4-dichlorobenzyl)-5-methylmorpholin-2-yl]methyi}acetamide]	greater than 5.0
O=C(Cc1ccccc1)NCC1CN(Cc2ccc(Cl)c(Cl)c2)CCO1 (stereo not shown) [Example 1, N-{[4-(3,4-Dichlorobenzyl)morpholin-2-yl]methyl}-2-phenylacetamide]	greater than 5.0
O=C(Cc1ccc(F)cc1)NCC1CN(Cc2ccc(Cl)c(Cl)c2)CCO1 (stereo not shown) [Example 4, N-{[4-(3,4-Dichlorobenzyl)morpholin-2-yl]methyl}-2-(4-fluorophenyl)acetamide]	greater than 5.0
Cc1ccc(CC(=O)NCC2CN(Cc3ccc(Cl)c(Cl)c3)CCO2)cc1 (stereo not shown) [Example 9, N-{[4-(3,4-Dichlorobenzyl)morpholin-2-yl]methyl}-2-(4-methylphenyl)acetamide]	greater than 5.0
O=C(Cc1ccc(Cl)cc1)NCC1CN(Cc2ccc(Cl)c(Cl)c2)CCO1 (stereo not shown) [Example 11, 2-(4-Chlorophenyl)-N-{[4-(3,4-dichlorobenzyl)morpholin-2-yl]methyl}acetamide]	greater than 5.0
O=C(Cc1ccc(Cl)c(Cl)c1)NCC1CN(Cc2ccc(Cl)c(Cl)c2)CCO1 (stereo not shown) [Example 15, N-{[4-(3,4-Dichlorobenzyl)morpholin-2-yl]methyl}-2-(3,4-dichlorophenyl)acetamide]	greater than 5.0
O=C(Cc1ccccc1Cl)NCC1CN(Cc2ccc(Cl)c(Cl)c2)CCO1 (stereo not shown) [Example 16, 2-(2-Chlorophenyl)-N-{[4-(3,4-dichlorobenzyl)morpholin-2-yl]methyl)acetamide]	greater than 5.0
O=C(Cc1ccc(Cl)cc1Cl)NCC1CN(Cc2ccc(Cl)c(Cl)c2)CCO1 (stereo not shown) [Example 18, N-{[4-(3,4-Dichlorobenzyl)morpholin-2-yl]methyl}-2-(2,4-dichlorophenyl)acetamide]	greater than 5.0
O=C(Cc1c(Cl)cccc1Cl)NCC1CN(Cc2ccc(Cl)c(Cl)c2)CCO1 (stereo not shown) [Example 20, N-{[4-(3,4-Dichlorobenzyl)morpholin-2-yl]methyl}-2-(2,6-dichlorophenyl)acetamide]	greater than 5.0
O=C(COc1ccccc1)NCC1CN(Cc2ccc(Cl)c(Cl)c2)CCO1 (stereo not shown) [Example 21, N-{[4-(3,4-Dichlorobenzyl)morpholin-2-yl]methyl}-2-phenoxyacetamide]	greater than 5.0
CC1(C)COC(CNC(=O)Cc2ccc(Cl)cc2)CN1Cc1ccc(Cl)c(Cl)c1 (stereo not shown) [Example 23, 2-(4-Chlorophenyl)-N-{[(3,4-dichlorobenzyl)-5,5-dimethylmorpholin-2-yl]methyl}acetamide]	greater than 5.0
O=C(Cc1ccccc1)NCC1CN(CCCc2ccc(Cl)c(Cl)c2)CCO1 (stereo not shown) [Example 28]	greater than 5.0
O=C(Cc1ccc(Cl)cc1)NCC1CN(Cc2cccc(Cl)c2Cl)CCO1.O=C(O)C(F)(F)F (stereo not shown) [Example 29, 2-(4-Chlorophenyl)-N-{[4-(2,3-dichlorobenzyl)morpholin-2-yl]methyl}acetamide trifluoroacetate]	greater than 5.0
O=C(NCC1CN(Cc2ccc(Cl)c(Cl)c2)CCO1)C1(c2ccc(Cl)cc2)CC1.O=C(O)C(F)(F)F (stereo not shown) [Example 30, 1-(4-Chlorophenyl)-N-{[4-(3,4-dichlorobenzyl)morpholin-2-yl]methyl)cyclopropanecarboxamide trifluoroacetate]	greater than 5.0
Cc1oc(-c2ccccc2)nc1CC(=O)NCC1CN(Cc2ccc(Cl)c(Cl)c2)CCO1 (stereo not shown) [Example 33, N-{[4-(3,4-Dichlorobenzyl)morpholin-2-yl]methyl]-2-(5-methyl-2-phenyl-1,3-oxazol-4-yl)acetamide]	greater than 5.0
Cc1c(CC(=O)NCC2CN(Cc3ccc(Cl)c(Cl)c3)CCO2)cnn1-c1ccccc1 (stereo not shown) [Example 34, N-{[4-(3,4-Dichlorobenzyl)morpholin-2-yl]methyl}-2-(5 methyl-1-phenyl-1H-pyrazol-4-yl)acetamide]	greater than 5.0
O=C(Cc1csc(-c2ccccc2)n1)NCC1CN(Cc2ccc(Cl)c(Cl)c2)CCO1 (stereo not shown) [Example 36, N-{[4-(3,4-Dichlorobenzyl)morpholin-2-yl]methyl}-2-(2-phenyl-1,3-thiazol-4-yl)acetamide]	greater than 5.0
CS(=O)(=O)c1ccc(CC(=O)NC[C@@H]2CN(Cc3ccc(Cl)c(Cl)c3)CCO2)cc1 [Example 40]	greater than 5.0
O=C(Cc1csc(-c2cnccn2)n1)NC[C@@H]1CN(Cc2ccc(Cl)c(Cl)c2)CCO1 [Example 43, N-{[(2R)-4-(3,4-Dichlorobenzyl)morpholin-2-yl]methyl}-2-(2-pyrazin-2-yl-1,3-thiazol-4-yl)acetamide]	greater than 5.0
CS(=O)(=O)Nc1ccc(CC(=O)NC[C@@H]2CN(Cc3ccc(F)cc3)CCO2)cc1 [Example 47]	greater than 5.0
CS(=O)(=O)Nc1ccc(CC(=O)NCC2CN(Cc3ccc(F)cc3)CCO2)cc1 (stereo not shown) [Example 48]	greater than 5.0
CS(=O)(=O)Nc1cccc(CC(=O)NC[C@@H]2CN(Cc3ccc(Cl)s3)CCO2)c1 [Example 50, N-({(2R)-4-[(5-Chlorothien-2-yl)methyl]morpholin-2-yl}methyl)-2-{3-[(methylsulfonyl)amino]phenyl}acetamide]	greater than 5.0
CS(=O)(=O)Nc1cccc(CC(=O)NCC2CN(Cc3ccc(Cl)s3)CCO2)c1 (stereo not shown) [Example 51]	greater than 5.0
O=C(Cc1c(F)cccc1F)NCC1CN(Cc2ccc(Cl)c(Cl)c2)CCO1 (stereo not shown) [Example 52, N-{[4-(3,4-Dichlorobenzyl)morpholin-2-yl]methyl}-2-(2,6-difluorophenyl)acetamide]	greater than 5.0
COC(=O)c1cccc(CC(=O)NCC2CN(Cc3ccc(Cl)c(Cl)c3)CCO2)c1 (stereo not shown) [Example 56, Methyl 3-[2-({[4-(3,4-dichlorobenzyl)morpholin-2-yl]methyl}amino)-2-oxoethyl]benzoate]	greater than 5.0
O=C(Cc1cccc(C(=O)O)c1)NCC1CN(Cc2ccc(Cl)c(Cl)c2)CCO1 (stereo not shown) [Example 57, 3-[2-({[4-(3,4-Dichlorobenzyl)morpholin-2-yl]methyl}amino)-2-oxoethyl]benzoic acid compound with N,N,N-triethylamine (1:1)]	greater than 5.0
CC(=O)Nc1cccc(CC(=O)NCC2CN(Cc3ccc(Cl)c(Cl)c3)CCO2)c1 (stereo not shown) [Example 58, 2-[3-(acetylamino)phenyl]-N-{[4-(3,4-dichlorobenzyl)morpholin-2-yl]methyl}acetamide]	greater than 5.0

Source: patent publication US20050222147A1, “Process for the preparation of morpholine derivatives and intermediates therefore” (priority 2000, published 2005)
